The list does not hold the whole screen: it is rich in T/C values a quarter to a half above the control, in often repeated tests (any T/C) and in doses without a T/C. Other doses and runs of a compound stand elsewhere. T/C: endpoint of the treated group in % of that of the vehicle group. Some entries give survivors of the animals treated and no T/C: the source holds a T/C of zero for them, seemingly a mark for toxic or unscored doses. Some survivor counts are full or nearly so, which does not show that the dose was tolerated: the source hardly ever lists a survival T/C far under the control, and the zero likely stands for such cases as well. Counts of survivors are from the toxicity check (mostly the fifth day) where no day follows; animals may have died later. Schedule codes are those of the source, taken here to give the interval after Q, in days (D) or hours (H), and the number of doses after X. Some schedule codes hold Z or #, which are not explained here. Some doses were run more than once; the values are given in rising order. Where survival is the endpoint, this PubChem deposit counts one and a half times the control or more as active, and values a quarter to a half above the control carry no call in these data; other NCI protocols may use other cut-offs. Some T/C values carry the count of animals alive at the toxicity check (mostly the fifth day); without a count, all were alive then.
Test system: L1210 leukemia ip in BDF1 mice, survival T/C
Experiment: NCI In Vivo Anticancer Drug Screen. Data for tumor model L1210 Leukemia (intraperitoneal) in B6D2F1 (BDF1) mice
Settings: T/C endpoint: mean survival time, higher T/C = longer survival
[1] = dose: 100.0 mg/kg/injection, schedule: Q01DX001 (ip), vehicle: other
[2] = dose: 200.0 mg/kg/injection, schedule: Q01DX001 (ip), vehicle: other
[3] = dose: 400.0 mg/kg/injection, schedule: Q01DX001 (ip), vehicle: other
[4] = dose: 20.0 mg/kg/injection, schedule: Q## X001 (ip), vehicle: saline
[5] = dose: 25.0 mg/kg/injection, schedule: Q## X001 (ip), vehicle: saline

## O=C(Nc1ccc(F)cc1)Nc1ccc(Nc2ccccc2)cc1
dose: 100.0 mg/kg/injection, schedule: Q01DX009 (ip), vehicle: carboxymethylcellulose (CMC)
  survivor count: 3 of 3
dose: 100.0 mg/kg/injection, schedule: Q04DX002 (ip), vehicle: carboxymethylcellulose (CMC)
  survivor count: 3 of 3
dose: 200.0 mg/kg/injection, schedule: Q01DX009 (ip), vehicle: carboxymethylcellulose (CMC)
  survivor count: 3 of 3
dose: 200.0 mg/kg/injection, schedule: Q04DX002 (ip), vehicle: carboxymethylcellulose (CMC)
  survivor count: 3 of 3
dose: 400.0 mg/kg/injection, schedule: Q04DX002 (ip), vehicle: carboxymethylcellulose (CMC)
  survivor count: 3 of 3

## Cc1ccnc(SC#N)n1
dose: 20.0 mg/kg/injection, schedule: Q01DX001 (ip), vehicle: other
  survivor count: 2 of 4
dose: 40.0 mg/kg/injection, schedule: Q01DX001 (ip), vehicle: other
  survivor count: 0 of 4
dose: 80.0 mg/kg/injection, schedule: Q01DX001 (ip), vehicle: other
  survivor count: 0 of 4
[1]
  survivor count: 0 of 4
[2]
  survivor count: 0 of 4
[3]
  survivor count: 0 of 4

## NC(=O)c1[nH]cnc1NN=NCCCl
dose: 1.5 mg/kg/injection, schedule: Q01DX001 (ip), vehicle: saline with Tween-80
  T/C: 138 % of control
dose: 3.0 mg/kg/injection, schedule: Q01DX001 (ip), vehicle: saline with Tween-80
  T/C: 125 % of control
dose: 6.0 mg/kg/injection, schedule: Q01DX001 (ip), vehicle: saline with Tween-80
  T/C: 148 % of control
dose: 6.25 mg/kg/injection, schedule: Q01DX001 (ip), vehicle: saline with Tween-80
  T/C: 149 % of control
dose: 50.0 mg/kg/injection, schedule: Q01DX009 (ip), vehicle: saline with Tween-80
  survivor count: 6 of 6
dose: 100.0 mg/kg/injection, schedule: Q01DX001 (ip), vehicle: saline with Tween-80
  survivor count: 4 of 6
dose: 200.0 mg/kg/injection, schedule: Q01DX001 (ip), vehicle: saline with Tween-80
  survivor count: 3 of 6
dose: 400.0 mg/kg/injection, schedule: Q01DX001 (ip), vehicle: saline with Tween-80
  survivor count: 0 of 6

## CCC(=N)C1CCCCC1
dose: 300.0 mg/kg/injection, schedule: Q01DX001 (ip), vehicle: carboxymethylcellulose (CMC)
  survivor count: 0 of 6

## C=COC(=O)CCCCCCC (tested in a mixture with another compound)
dose: 10.0 mg/kg/injection, schedule: Q01DX001 (ip), vehicle: acetone
  T/C: 134 % of control
dose: 15.0 mg/kg/injection, schedule: Q01DX001 (ip), vehicle: acetone
  survivor count: 3 of 6
dose: 100.0 mg/kg/injection, schedule: Q01DX001 (ip), vehicle: acetone
  survivor count: 0 of 4
[1]
  survivor count: 0 of 4
dose: 200.0 mg/kg/injection, schedule: Q01DX001 (ip), vehicle: acetone
  survivor count: 2 of 4
[2]
  survivor count: 0 of 4
dose: 200.0 mg/kg/injection, schedule: Q01DX001 (ip), vehicle: saline
  survivor count: 0 of 4 and 2 of 4
dose: 400.0 mg/kg/injection, schedule: Q01DX001 (ip), vehicle: acetone
  survivor count: 0 of 4
[3]
  survivor count: 0 of 4
dose: 400.0 mg/kg/injection, schedule: Q01DX001 (ip), vehicle: saline
  survivor count: 0 of 4

## COC(=O)[C@@H]1c2cc3c(c(O)c2[C@@H](OC2OC(C)C(OC)C(C)(OC)C2OC)C[C@]1(C)O)C(=O)c1c(O)cc2c(c1C3=O)O[C@H]1O[C@]2(C)[C@H](O)[C@@H](N(C)C)[C@@H]1O (stereo partly drawn)
dose: 1.0 mg/kg/injection, schedule: Q## X001 (ip), vehicle: saline
  T/C: 90, 93, 113, 121 % of control
dose: 3.0 mg/kg/injection, schedule: Q01DX Z (ip), vehicle: carboxymethylcellulose (CMC)
  survivor count: 6 of 6
dose: 4.0 mg/kg/injection, schedule: Q01DX009 (ip), vehicle: saline
  survivor count: 4 of 6
dose: 4.0 mg/kg/injection, schedule: Q01DX Z (ip), vehicle: carboxymethylcellulose (CMC)
  survivor count: 4 of 6
dose: 4.0 mg/kg/injection, schedule: Q## X032 (ip), vehicle: saline
  T/C: 128 % of control
dose: 5.0 mg/kg/injection, schedule: Q## X001 (ip), vehicle: saline
  T/C: 90, 98, 109, 113 % of control
dose: 10.0 mg/kg/injection, schedule: Q## X001 (ip), vehicle: saline
  T/C: 95, 106, 113, 121 % of control
dose: 12.0 mg/kg/injection, schedule: Q01DX001 (ip), vehicle: saline
  survivor count: 2 of 4
dose: 15.0 mg/kg/injection, schedule: Q01DX001 (ip), vehicle: saline
  survivor count: 2 of 6
dose: 15.0 mg/kg/injection, schedule: Q## X001 (ip), vehicle: saline
  T/C: 90 [3 of 4 alive], 100 [2 of 3 alive], 109, 109 % of control [3 of 4 alive]
dose: 16.0 mg/kg/injection, schedule: Q## X008 (ip), vehicle: saline
  survivor count: 2 of 6
dose: 16.0 mg/kg/injection, schedule: Q## X032 (ip), vehicle: saline
  survivor count: 1 of 6
dose: 20.0 mg/kg/injection, schedule: Q01DX001 (ip), vehicle: saline
  survivor count: 0 of 6
[4]
  T/C: 98 and 103 % of control
  survivor count: 1 of 4 and 2 of 4
dose: 24.0 mg/kg/injection, schedule: Q## X008 (ip), vehicle: saline
  survivor count: 0 of 6
dose: 25.0 mg/kg/injection, schedule: Q01DX001 (ip), vehicle: saline
  survivor count: 0 of 6
[5]
  T/C: 100 % of control [3 of 4 alive]
  survivor count: 1 of 4, 2 of 4, 3 of 4
dose: 30.0 mg/kg/injection, schedule: Q01DX001 (ip), vehicle: saline
  survivor count: 0 of 6
dose: 30.0 mg/kg/injection, schedule: Q## X001 (ip), vehicle: saline
  survivor count: 0 of 4, 1 of 4, 2 of 4
dose: 32.0 mg/kg/injection, schedule: Q## X008 (ip), vehicle: saline
  survivor count: 0 of 6

## NC(=O)c1ccc(NC(=O)CCC(=O)Nc2ccc(C(N)=O)cn2)nc1
dose: 10.0 mg/kg/injection, schedule: Q01DX Z (ip), vehicle: carboxymethylcellulose (CMC)
  survivor count: 7 of 7
dose: 20.0 mg/kg/injection, schedule: Q01DX Z (ip), vehicle: carboxymethylcellulose (CMC)
  survivor count: 5 of 6
dose: 40.0 mg/kg/injection, schedule: Q01DX Z (ip), vehicle: carboxymethylcellulose (CMC)
  survivor count: 0 of 6

## O=C(O)c1cc2ccccc2c2cc(Br)ccc12
dose: 400.0 mg/kg/injection, schedule: Q01DX009 (ip), vehicle: saline sonified
  survivor count: 0 of 6

## C/C=C\C(=O)OCC(C)CCC (stereo not drawn)
dose: 400.0 mg/kg/injection, schedule: Q04DX002 (ip), vehicle: saline with Tween-80
  survivor count: 2 of 3

## CCCN1CCc2cc(OC)c(OC)cc2C1Cc1ccc(OC)c(OC)c1 (stereo not drawn)
dose: 300.0 mg/kg/injection, schedule: Q01DX001 (ip), vehicle: other
  survivor count: 0 of 6

## CN(C/C=C/CN(C)P(=O)(N1CC1)N1CC1)P(=O)(N1CC1)N1CC1
dose: 12.5 mg/kg/injection, schedule: Q01DX009 (ip), vehicle: saline
  survivor count: 3 of 6
dose: 25.0 mg/kg/injection, schedule: Q01DX009 (ip), vehicle: saline
  T/C: 125 % of control
dose: 100.0 mg/kg/injection, schedule: Q01DX001 (ip), vehicle: carboxymethylcellulose (CMC)
  T/C: 147 % of control [5 of 6 alive]
dose: 200.0 mg/kg/injection, schedule: Q01DX001 (ip), vehicle: carboxymethylcellulose (CMC)
  survivor count: 1 of 6
dose: 400.0 mg/kg/injection, schedule: Q01DX001 (ip), vehicle: carboxymethylcellulose (CMC)
  survivor count: 0 of 6
